In PubChem BioAssay AID2685 (National Center for Advancing Translational Sciences (NCATS), 2010) one finds cell number change and AC50 data, which are given here for 60 compounds.

A word on the AC50: it is the concentration at which the activity in the assay is half-maximal. Low values mean activity at low concentration, high ones activity only at high concentration.

This is one part of the list. Further columns of the screen follow, without active or inactive calls. The list favours compounds with an active or inconclusive main result. Words in brackets tell the shape of the fitted curve; partial curves, single points and poor fits give uncertain potencies.

The assay can be described thus: qHTS Assay for Lipid Storage Modulators in Drosophila S3 Cells.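 For cell number change: cells counted by Cell Tracker Red CMTPX staining in the red channel.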 To be noted: BODIPY lipid droplet fluorescence, 18-24 h; for cell number change: measured here: cell count max response, cells fed with added oleic acid. The method, boiled down: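 Drosophila S3 cells got compounds at several concentrations plus oleic acid (400 uM solution). Laser-scanning cytometry with 488 nm excitation read lipid droplets at 500-530 nm and cells at 575-640 nm. Percent activity was relative to 20 uM Triacsin C.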
A general note: In qHTS, concentration-response curves come from the screen itself.

Setting [1] is: measured here: cell number channel AC50, cells fed with added oleic acid.
The mark [2] stands for this setting: measured here: lipid fluorescence (Fed channel) AC50, cells fed with added oleic acid.

For `COc1ccc(CN2CCC(C(=O)Nc3ccc(Oc4ccccc4)nc3)CC2)cc1F`, the cell number change was -49.5%. Further, under setting [1], the AC50 was 13 µM [falling, partial curve, poor fit].

As for `Cc1ccc(C)c(-c2nnc(NC(=O)CCS(=O)(=O)c3ccc(F)cc3)o2)c1`, the concentration at half-maximal activity (AC50) under setting [1] is 2.31 µM [rising, partial curve].

On to `CCOCCCNC(=O)CN(Cc1ccc(Cl)cc1)S(C)(=O)=O`, for which the cell number change was determined as 1.89%. Under setting [2], the AC50 is 2.59 µM [rising, single point].

For the compound `CCCN1C(=O)c2ccccc2NC1c1ccc(Cl)cc1` (centres undefined), the cell number change turned out to be 12.8%. The AC50 under setting [2] is 11.6 µM [falling, partial curve].

Turning to `COc1ccc(N2CCN(C(=O)c3ccc(S(=O)(=O)N4CCOCC4)cc3)CC2)cc1`, the cell number change is -13.4%. Further, under setting [1], the AC50 is 0.517 µM [falling, partial curve, poor fit]. The AC50 under setting [2] was 0.517 µM [falling, full curve, poor fit].

In the case of `Cc1ccnc2nc(C(=O)OCCOc3ccc(F)cc3)nn12`, the cell number change came out at 36%. The AC50 under setting [1] is 2.31 µM [falling, partial curve, poor fit]. In addition, the AC50 under setting [2] is 0.82 µM [falling, partial curve, poor fit].

Turning to `COc1ccc(NC(=O)c2ccccc2Sc2ccc(NC(C)=O)nc2)cc1`, the cell number change came out at 65.2%. Also, under setting [1], the AC50 was 16.4 µM [rising, single point]. In addition, the AC50 under setting [2] is 23.1 µM [rising, single point].

Consider `COc1ccc(NC(=O)C(NC(=O)CNC(C)=O)c2ccc(C)cc2)cc1` (centres undefined), for which the cell number change is -20.2%.

With `CCCCN1C(=O)C(O)=C(C(C)=O)C1c1ccccc1[N+](=O)[O-]` (centres undefined), the cell number change turned out to be 59.7%. In addition, the AC50 under setting [2] is 29.1 µM [rising, partial curve, poor fit].

Take `CS(=O)(=O)Nc1ccc(C(=O)Nc2ccccc2C(=O)N2CCCC2)cc1`: the cell number change is -77%. Besides, under setting [1], the AC50 is 25.9 µM [falling, partial curve]. The AC50 under setting [2] was 16.4 µM [falling, partial curve].

With `N#C/C(=C\c1cccnc1)C(=O)Nc1ccc(C(=O)O)cc1`, the cell number change is -6.51%.

For `CC1=C(C#N)C(=O)NC(C)(C)C1`, the cell number change was -8.12%.

Regarding `CC(NC(=S)NC1CCCCC1)c1ccc(C(C)(C)C)cc1` (centres undefined), under setting [2], the AC50 was 20.6 µM [falling, single point].

Take `CCc1ccc(NC(=S)N2CCC(NC(=O)C3CCCCC3)CC2)cc1`: the cell number change is -24.8%. For the same compound, the AC50 under setting [2] is 29.1 µM [falling, partial curve, poor fit].

On to `CCOC(=O)n1c(=O)n(Cc2cccc(C)c2)c2ccccc21`, for which the cell number change was -4.07%. Also, the AC50 under setting [2] is 32.6 µM [rising, single point].

For `CSc1nnc(C2CCCN2)n1C` (centres undefined), the cell number change was -11.3%. Besides, the AC50 under setting [1] is 3.66 µM [falling, single point]. In addition, the AC50 under setting [2] is 2.06 µM [falling, full curve].

`CN(CCC#N)C(=O)c1cc2c(Cl)nc3ccccc3c2s1`: the cell number change stood at 20.4%. The AC50 under setting [2] was 5.8 µM [rising, full curve, poor fit].

For `COc1ccc(N(Cc2cc3ccccc3[nH]c2=O)S(=O)(=O)c2ccccc2)cc1`, the cell number change was 8.86%.

Take `Cc1ccc(-n2c(O)c(C=NCc3ccccn3)c3ccccc3c2=O)cc1`: the cell number change turned out to be 33.8%. The AC50 under setting [1] is 6.51 µM [rising, partial curve]. Besides, under setting [2], the AC50 is 20.6 µM [rising, single point].

As to `COC(=O)C1C(O)C(C)C(O)C(C)(O)/C=C\C=C(/C)C(=O)Nc2c(C)c(OC(C)=O)c3c(c2O)C(=O)C(C)=C2OCOC(=C23)/C(C)=C/C(C)(O)C(O)C(C)C1O` (centres undefined), the cell number change turned out to be 146%. Further, the AC50 under setting [1] is 11.6 µM [rising, partial curve].

With `CC(C)(C)[C@@H]1CCC(=O)N(CC[C@H](Sc2ccccc2)c2ccccc2)CC1`, the cell number change was determined as 7.19%.

As to `O=CN1CCN(C(=O)Cc2ccc([N+](=O)[O-])cc2)CC1`, the cell number change is 6.32%. Under setting [2], the AC50 is 29.1 µM [rising, single point].

`CN(CC(=O)NC1CCCc2ccccc21)S(=O)(=O)c1cccs1` (centres undefined): the cell number change came out at 33.4%. For the same compound, the AC50 under setting [1] is 32.6 µM [rising, single point].

With `CC(C(=O)NCC1CCCCC1)N(C)Cc1ccc(Br)cc1` (centres undefined), the cell number change was 40.7%. Under setting [1], the AC50 was 0.00731 µM [rising, full curve, poor fit].

On to `COc1ccc(C(=O)Nc2cc(C)nc3ccccc23)cc1OC`, for which the cell number change came out at 83.7%. Also, the AC50 under setting [1] was 11.6 µM [rising, partial curve, poor fit]. For the same compound, under setting [2], the AC50 is 1.84 µM [rising, partial curve].

Turning to `NC(=O)NC(=O)CSc1nnc(-c2ccc(Cl)cc2)n1CC1CCCO1` (centres undefined), the cell number change stood at 8.14%.

Take `CN1CCN(C(=O)C2CCN(S(=O)(=O)c3ccc(F)cc3)CC2)CC1`: the cell number change amounted to 20.2%. In addition, the AC50 under setting [2] was 29.1 µM [falling, single point].

With `Cc1cccc(Nc2nc(N)c([N+](=O)[O-])c(NCc3ccco3)n2)c1`, the cell number change is 20.4%. Moreover, the AC50 under setting [2] is 23.1 µM [rising, single point].

With `CCN(Cc1ccncc1)C(=O)CCc1ccccc1`, the cell number change is -7.69%.

In the case of `CCc1cccc(C)c1NC(=S)NCc1ccccc1`, the cell number change stood at 70.3%. Also, the AC50 under setting [1] is 29.1 µM [rising, single point]. The AC50 under setting [2] was 23.1 µM [falling, partial curve, poor fit].

As for `O=c1c2ccccc2c2c(O)nc(-c3ccccc3)n2n1Cc1ccccc1`, the cell number change is 10.2%. The AC50 under setting [2] is 29.1 µM [falling, single point].

As to `Cc1ccc(N/N=C2\CS(=O)(=O)N(C)c3ccsc32)cc1`, the cell number change is -104%.

`Cc1ccc(N(CC(=O)NCc2ccco2)C(=O)CCC(=O)Nc2ccccn2)cc1C`: the cell number change was 0.332%. Further, the AC50 under setting [1] was 1.64 µM [rising, partial curve, poor fit]. Under setting [2], the AC50 is 29.1 µM [rising, single point].

`O=C(C[n+]1cc(Br)cc(Br)c1)c1cccc([N+](=O)[O-])c1`: the cell number change was -23.4%.

As for `CC1(c2ccc3c(c2)OCO3)NC(=O)N(CC(=O)Nc2ccccc2)C1=O` (centres undefined), the cell number change stood at 117%. Besides, the AC50 under setting [1] was 18.4 µM [rising, single point].

`COc1ccc(NC(=O)CNC(c2ccccc2)c2ccccc2)cc1Cl`: the cell number change came out at 21.1%. Besides, the AC50 under setting [1] is 0.731 µM [rising, full curve].

For the compound `O=C(NCc1ccccc1Cl)C(=O)c1cn(CC(=O)N2CCOCC2)c2ccccc12`, the cell number change was found to be 2.55%. Moreover, the AC50 under setting [2] was 0.58 µM [rising, single point].

Consider `COc1ccc(C(=O)COC(=O)CCN=C2NS(=O)(=O)c3ccccc32)cc1OC`, for which the cell number change is -50.4%. Under setting [1], the AC50 is 29.1 µM [falling, single point].

Consider `CCOC(=O)C(CC)/C(C)=N\NC(=O)c1cccc(C)c1` (centres undefined), for which the cell number change turned out to be 2.17%. Further, under setting [2], the AC50 was 3.66 µM [falling, single point].

Take `COc1cc(Cl)ccc1OCc1cc(C(=O)N(C)Cc2nnc(C)o2)no1`: the cell number change was determined as 2.89%.

In the case of `CC1CC(C)(C)NC(=S)O1` (centres undefined), the cell number change is 0.218%. Besides, the AC50 under setting [2] was 6.51 µM [rising, single point].

On to `COc1ccc(CNC(=O)c2ccc(CNc3c(NC4CCCCC4)c(=O)c3=O)cc2)cc1`, for which the cell number change is -23.1%. For the same compound, the AC50 under setting [2] is 29.1 µM [rising, single point].

Regarding `CCN(CC(=O)NCc1cccs1)C(=O)/C=C/c1cccc(Br)c1`, the cell number change came to 31.6%. Moreover, the AC50 under setting [1] is 11.6 µM [rising, single point].

Consider `CCOC(=O)CCCNC(=O)CCNC(=O)c1ccc(OC)cc1`, for which the cell number change was -26.5%. Moreover, under setting [1], the AC50 is 0.231 µM [falling, full curve]. Moreover, the AC50 under setting [2] is 0.651 µM [falling, full curve].

On to `CCCN1CCN(C(=S)Nc2ccc(S(N)(=O)=O)cc2)CC1`, for which the cell number change was found to be 33.7%. Further, the AC50 under setting [1] was 29.1 µM [rising, single point]. Also, under setting [2], the AC50 is 0.082 µM [rising, partial curve, poor fit].

For `COc1ccccc1N/C=C/c1onc(C)c1[N+](=O)[O-]`, the cell number change stood at 62%. Besides, the AC50 under setting [2] was 29.1 µM [rising, single point].

On to `CN(Cc1ccccc1)C(=O)C1CCN(S(=O)(=O)c2cc([N+](=O)[O-])ccc2Cl)CC1`, for which the cell number change was -14.7%. Moreover, the AC50 under setting [2] is 6.51 µM [falling, partial curve].

With `O=C(NCc1ccc2c(c1)OCO2)c1cc(-c2cc(Cl)ccc2O)n[nH]1`, the cell number change was 6.2%. Also, under setting [1], the AC50 is 1.84 µM [falling, partial curve]. Also, the AC50 under setting [2] is 2.06 µM [falling, partial curve].

For `CN(C)S(=O)(=O)c1ccc(Cl)c(C(=O)NC2=NCCS2)c1`, the cell number change turned out to be 9.15%.

For the compound `O=C(CN1CCN(S(=O)(=O)c2ccc(Br)cc2)CC1)N/N=C/c1cccs1`, the cell number change is 25.4%. For the same compound, the AC50 under setting [1] is 3.26 µM [falling, single point]. Besides, the AC50 under setting [2] is 4.11 µM [falling, single point].

As to `COc1cc2cc(C(=O)N/N=C/c3cccc(OC)c3OC)[nH]c2cc1OC`, the cell number change was -25.5%. For the same compound, the AC50 under setting [2] is 20.6 µM [falling, single point].

Turning to `CC(Sc1ccc2ccccc2n1)C(=O)O` (centres undefined), the cell number change came to 0.919%.

With `COc1ccc(NC(=O)NNC(=O)COc2ccc3cc(Br)ccc3c2)cc1`, the cell number change was -4.95%. In addition, the AC50 under setting [1] was 1.84 µM [rising, partial curve, poor fit]. Also, the AC50 under setting [2] was 10.3 µM [rising, partial curve].

For the compound `Cc1ccc(Nc2nnns2)cc1C`, the cell number change came out at 189%. Moreover, the AC50 under setting [1] was 18.4 µM [rising, single point].

Regarding `CCN(C(=O)COC(=O)CSc1ccc(C)c(C)c1)C1CCS(=O)(=O)C1` (centres undefined), the cell number change was determined as 5.95%. Also, the AC50 under setting [1] was 7.31 µM [rising, single point]. Under setting [2], the AC50 was 6.51 µM [rising, single point].

As for `CC(=O)c1ccc(NC(=O)c2ccc(NC(=O)c3ccco3)cc2)cc1`, the cell number change came out at 18.4%. The AC50 under setting [2] was 29.1 µM [falling, single point].

Regarding `CCOCCCNC(=O)/C(C#N)=C/c1ccc([N+](=O)[O-])o1`, the cell number change was -78.3%. Also, the AC50 under setting [1] was 29.1 µM [falling, single point].

On to `Cc1ccc(S(=O)(=O)Nc2ncccn2)cc1`, for which the cell number change was -5.96%.

Take `O=[N+]([O-])c1ccc(O)c(N=Cc2sc3ccccc3c2O)c1`: the cell number change was 2.41%. Moreover, the AC50 under setting [2] is 29.1 µM [falling, single point].

With `CCCC(=O)N(CC(=O)Nc1sc(C)c(C)c1C(N)=O)Cc1ccccc1`, the AC50 under setting [1] was 1.84 µM [rising, partial curve, poor fit].
